Test results taken from paper PMC5744401.
These are yes or no findings as the source states them, for the method shown. For part of these data: Binding seen in cells or lysates may run through a third protein. Some results given as binding are weak or reduced against the parent protein; the word gives no strength. Sequences can lack the tags named with a protein.

T1: GST-AvaR2 (Streptomyces avermitilis) (UniProt Q82H44)
T1 sequence: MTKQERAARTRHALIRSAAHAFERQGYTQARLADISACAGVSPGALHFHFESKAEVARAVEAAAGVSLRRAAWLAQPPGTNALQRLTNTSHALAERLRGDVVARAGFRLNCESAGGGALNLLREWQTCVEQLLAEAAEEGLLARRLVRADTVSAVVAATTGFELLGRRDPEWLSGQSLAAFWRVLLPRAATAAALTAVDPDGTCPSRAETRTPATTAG

B1: His6-AvaR2 (protein, UniProt Q82H44 1-218)
chain: T1 sequence
B2: His6-AvaR1 (protein, UniProt Q82H41 1-234)
chain: MARQERAIRTRQTILVAAAEVFDEVGYEAATISDVLKRSGVTKGALYFHFTSKQELAQAVLAEQVASLPRVPEQELKLQQSLDEALLLAHLLREGTGDPIVQGSVRLTVDQGSPRDHLNRRVPMQAWTEHTQSLFEEARAKGEILPHADVEALAKLFVGAFTGVQVLSRIMTGRADLAERVADLYRHLMPSFAMPGILVRLDFSPERGSRVYEAAMKQRESAAASTTDAARTLE

Tests used:
[1] = target: T1, GST-AvaR2 (Streptomyces avermitilis); experiment: pull-down; His6- and GST-tagged proteins co-expressed in E. coli BL21 (DE3); lysate incubated with glutathione-sepharose beads overnight at 4°C, washed three times with PBS buffer; Western blotting with anti-GST or anti-His antibody
[2] = target: T1, GST-AvaR2 (Streptomyces avermitilis); experiment: native gel or EMSA; competitive EMSA: 0.3 nM labeled DNA probe aveRp2 incubated with His6-AvaR1 and GST-AvaR2 together at varied concentrations; a new complex of intermediate mobility is read as heterodimer on DNA; both purified

binding [1] | binding [2] | Binder
binds |  | B1
binds | binds | B2
